Laboratory results reported in PubChem BioAssay AID504850 (National Center for Advancing Translational Sciences (NCATS), 2011).
Hit rate of the full screen: of about 2,300 compounds, about 1,200 (52%) were called active. So high a share suggests a set chosen from earlier hits. Inconclusive results, whose numbers are uncertain, are shown with a selection of clear calls. The call rests on the fitted dose curve; in most records, active means well fitted inhibition curve with a large enough effect; inconclusive means small, poorly fitted or top-dose-only effect, or effect the other way; inactive means no such curve, though single readings can be large or run the other way. Potencies of inconclusive entries are doubtful fits and often do not repeat.
Potency means the concentration at half of the fitted maximal effect.

Test: Confirmation screen for delayed death inhibitors of the malarial parasite plastid, 48 hour incubation; further: nearly all actives have a fitted effect of over 65% in size
Conditions: P. falciparum-infected erythrocytes, luciferase growth; series mostly up to 28.7 µM
Outline: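 Single-generation (48 h, 37 C) exposure of integrated firefly luciferase-reporter P. falciparum in red cells, 0.1% parasitemia at 2% hematocrit, Albumax-supplemented RPMI. Falling luciferase signal marks parasite growth inhibition.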
With Clc1ccc(-n2cccc2CN2CCc3c([nH]c4ccccc34)C2c2ccccn2)nc1 (stereo not given) the Potency was inconclusive: 15.8 µM [inhibitor, single point]. In the case of Cc1ccc(C(=O)NCCc2c[nH]c3ccccc23)c(C)c1, the Potency is reported as inconclusive: 3.98 µM [activator, full curve]. In the case of C/C(=N/OCO/N=C(\C)c1ccccc1)c1ccccc1, the Potency is reported as inconclusive: 15.8 µM [inhibitor, single point]. In the case of O=c1oc(-c2ccccc2NS(=O)(=O)c2ccc3ccccc3c2)nc2ccccc12, the Potency is reported as inconclusive: 0.0562 µM [inhibitor, full curve, poor fit]. In the case of Cc1nc(-c2ccc(S(=O)(=O)N3CCCN(CCc4ccccc4)CC3)s2)cs1, the Potency is reported as active: 10 µM. For Cn1cc([N+](=O)[O-])c(C(=O)Nc2ccn(C34CC5CC(CC(C5)C3)C4)n2)n1, the Potency was “inactive”. With CC1(C)COC(/C=C/c2ccc([N+](=O)[O-])cc2)=N1 the Potency was inconclusive: 15.8 µM [inhibitor, single point]. For COc1cc([N+](=O)[O-])ccc1NC(=O)Nc1cccnc1, the Potency was inconclusive: 15.8 µM [inhibitor, single point]. With O=Cc1s/c(=N\S(=O)(=O)c2ccccc2)n(CCCCl)c1Cl the Potency was “inactive”. In the case of CC(=O)Nc1ccc(S(=O)(=O)N2CCN=C2SCc2ccc(F)cc2)cc1, the Potency is reported as inconclusive: 14.1 µM [inhibitor, single point]. With CCS(=O)(=O)c1ccc(Sc2nncn2C)c([N+](=O)[O-])c1 the Potency was inconclusive: 15.8 µM [inhibitor, partial curve, poor fit]. With Cc1cccc(NC(=O)c2cc(S(=O)(=O)NCc3ccco3)ccc2F)c1C the Potency was inconclusive: 22.4 µM [inhibitor, single point]. For O=C1Nc2ccccc2/C1=C/C(=O)c1cccs1, the Potency was “inactive”. In the case of CCc1nn(CC(=O)N(C)C2CCCCC2)c(=O)c2cc3cc(C)ccc3n12, the Potency is reported as inconclusive: 3.98 µM [inhibitor, partial curve, poor fit]. With CCCc1c(C)c2cccc(C)c2[nH]c1=O the Potency was “inactive”. In the case of COc1ccccc1N1CC(O)=C(c2nc3ccccc3s2)C1=N, the Potency is reported as inconclusive: 3.98 µM [activator, single point]. For CC(C)N(C(C)C)S(=O)(=O)c1ccc(N2CCc3ccccc3C2)nc1, the Potency was inconclusive: 20 µM [inhibitor, single point]. With O=S(=O)(NCC(O)c1ccccc1)c1cc(Cl)sc1Cl (stereo not given) the Potency was “inactive”. In the case of COc1cccc(COC(=O)C2CC(=O)N(Cc3ccco3)C2)c1OC (stereo not given), the Potency is reported as “inactive”. For CSc1nnc2c3ccccc3n(CCc3ccccc3)c2n1, the Potency was active: 15.8 µM. With COc1cc([N+](=O)[O-])ccc1NC(=S)Nc1cccc(C(=O)O)c1 the Potency was inconclusive: 22.4 µM [inhibitor, single point]. With CCOc1ccc(/C=C/[N+](=O)[O-])c2ccccc12 the Potency was inconclusive: 15.8 µM [inhibitor, single point]. With O=C1CN(c2nc(-c3cccnc3)nc3scc(-c4ccccc4)c23)CCN1 the Potency was inconclusive: 11.2 µM [inhibitor, single point]. In the case of COc1ccccc1OCC(=O)NNc1c2ccccc2nc2ccccc12, the Potency is reported as active: 10 µM. For O=[N+]([O-])c1cccc(/C=C/c2nc[nH]c2[N+](=O)[O-])c1, the Potency was active: 7.94 µM. With CC(C)C(=O)NC(=S)Nc1ccc(S(=O)(=O)NC2CCCCC2)cc1 the Potency was inconclusive: 1 µM [inhibitor, partial curve, poor fit]. With CCC(=O)Nc1ccc(C(=O)Cn2ncc(Cl)c(Cl)c2=O)cc1 the Potency was inconclusive: 15.8 µM [inhibitor, single point]. With Brc1ccc2[nH]c3c(c2c1)CCC3 the Potency was inconclusive: 2 µM [inhibitor, partial curve, poor fit]. With CC(=O)c1ccc(NC(=O)C[n+]2cccc(C)c2)cc1 the Potency was “inactive”. With O=C(/C=C/c1ccccc1O)c1ccco1 the Potency was “inactive”. In the case of CC1CCN(CCCNS(=O)(=O)c2cc(Br)cc3c2N(C(=O)C2CC2)CC3)CC1, the Potency is reported as inconclusive: 15.8 µM [inhibitor, single point]. In the case of O=C(Nc1nnc(Cc2ccc(F)cc2)s1)Nc1ccccc1F, the Potency is reported as inconclusive: 15.8 µM [inhibitor, single point]. For CCOc1ccc(CN2CCN(Cc3ccc4cc(F)ccc4n3)CC2CCO)cc1 (stereo not given), the Potency was inconclusive: 17.8 µM [inhibitor, single point]. With O=C(CSc1nnc(CNc2ccc(F)cc2)o1)c1ccccc1 the Potency was “inactive”. For Cc1nn(C(C)C(=O)Nc2ccc3c(c2)OCO3)c(C)c1[N+](=O)[O-] (stereo not given), the Potency was inconclusive: 15.8 µM [inhibitor, partial curve]. In the case of CCOc1ccccc1-c1cc(C(=O)N/N=C/c2ccc(O)c(OC)c2)c2ccccc2n1, the Potency is reported as inconclusive: 12.6 µM [inhibitor, partial curve, poor fit]. In the case of Cc1cc(N2CCOCC2)ccc1/C=C\[N+](=O)[O-], the Potency is reported as inconclusive: 22.4 µM [inhibitor, single point]. For N#CC(C#N)=C1C=CC=CN1/C(=C\c1ccccc1Cl)C(=O)c1ccccc1, the Potency was inconclusive: 15.8 µM [inhibitor, single point]. For Cc1cc(/C=C2/SC(=O)NC2=O)c(C)n1-c1ccc(N2CCOCC2)cc1, the Potency was inconclusive: 12.6 µM [inhibitor, single point]. For CCCNC(=O)COc1coc(CN2CCN(c3cccc(Cl)c3)CC2)cc1=O, the Potency was inconclusive: 11.2 µM [inhibitor, partial curve]. With O=C(Nc1ccc(N2CCN(C(=O)c3ccccc3)CC2)cc1)c1ccc([N+](=O)[O-])o1 the Potency was active: 5.01 µM. With CCCN(CCC)CCNC(=O)C1c2ccccc2C(=O)N2CCc3ccccc3C12 (stereo not given) the Potency was “inactive”. For O=C(Nc1ccc2c(c1)OCO2)c1ccccc1, the Potency was inconclusive: 3.55 µM [activator, partial curve]. For O=C(CSc1cccc2cccnc12)N/N=C/c1cccnc1, the Potency was inconclusive: 11.2 µM [inhibitor, partial curve, poor fit]. For COc1cccc(NC(=O)c2ccc3c(c2)C(=O)N(CC2CCCO2)C3=O)c1 (stereo not given), the Potency was “inactive”.
